Assay results published in PMC6450892.
No constants are given. Whether binding was seen depends on the method and setting. Binding seen in cells or lysates may run through a third protein. Some results given as binding are weak or reduced against the parent protein; the word gives no strength.

The chains behind the UniProt entries cited, without tags or fusion partners. Where a name states a change or a piece, a line headed by the entry shows the natural chain unless it says otherwise.
UniProt O75376: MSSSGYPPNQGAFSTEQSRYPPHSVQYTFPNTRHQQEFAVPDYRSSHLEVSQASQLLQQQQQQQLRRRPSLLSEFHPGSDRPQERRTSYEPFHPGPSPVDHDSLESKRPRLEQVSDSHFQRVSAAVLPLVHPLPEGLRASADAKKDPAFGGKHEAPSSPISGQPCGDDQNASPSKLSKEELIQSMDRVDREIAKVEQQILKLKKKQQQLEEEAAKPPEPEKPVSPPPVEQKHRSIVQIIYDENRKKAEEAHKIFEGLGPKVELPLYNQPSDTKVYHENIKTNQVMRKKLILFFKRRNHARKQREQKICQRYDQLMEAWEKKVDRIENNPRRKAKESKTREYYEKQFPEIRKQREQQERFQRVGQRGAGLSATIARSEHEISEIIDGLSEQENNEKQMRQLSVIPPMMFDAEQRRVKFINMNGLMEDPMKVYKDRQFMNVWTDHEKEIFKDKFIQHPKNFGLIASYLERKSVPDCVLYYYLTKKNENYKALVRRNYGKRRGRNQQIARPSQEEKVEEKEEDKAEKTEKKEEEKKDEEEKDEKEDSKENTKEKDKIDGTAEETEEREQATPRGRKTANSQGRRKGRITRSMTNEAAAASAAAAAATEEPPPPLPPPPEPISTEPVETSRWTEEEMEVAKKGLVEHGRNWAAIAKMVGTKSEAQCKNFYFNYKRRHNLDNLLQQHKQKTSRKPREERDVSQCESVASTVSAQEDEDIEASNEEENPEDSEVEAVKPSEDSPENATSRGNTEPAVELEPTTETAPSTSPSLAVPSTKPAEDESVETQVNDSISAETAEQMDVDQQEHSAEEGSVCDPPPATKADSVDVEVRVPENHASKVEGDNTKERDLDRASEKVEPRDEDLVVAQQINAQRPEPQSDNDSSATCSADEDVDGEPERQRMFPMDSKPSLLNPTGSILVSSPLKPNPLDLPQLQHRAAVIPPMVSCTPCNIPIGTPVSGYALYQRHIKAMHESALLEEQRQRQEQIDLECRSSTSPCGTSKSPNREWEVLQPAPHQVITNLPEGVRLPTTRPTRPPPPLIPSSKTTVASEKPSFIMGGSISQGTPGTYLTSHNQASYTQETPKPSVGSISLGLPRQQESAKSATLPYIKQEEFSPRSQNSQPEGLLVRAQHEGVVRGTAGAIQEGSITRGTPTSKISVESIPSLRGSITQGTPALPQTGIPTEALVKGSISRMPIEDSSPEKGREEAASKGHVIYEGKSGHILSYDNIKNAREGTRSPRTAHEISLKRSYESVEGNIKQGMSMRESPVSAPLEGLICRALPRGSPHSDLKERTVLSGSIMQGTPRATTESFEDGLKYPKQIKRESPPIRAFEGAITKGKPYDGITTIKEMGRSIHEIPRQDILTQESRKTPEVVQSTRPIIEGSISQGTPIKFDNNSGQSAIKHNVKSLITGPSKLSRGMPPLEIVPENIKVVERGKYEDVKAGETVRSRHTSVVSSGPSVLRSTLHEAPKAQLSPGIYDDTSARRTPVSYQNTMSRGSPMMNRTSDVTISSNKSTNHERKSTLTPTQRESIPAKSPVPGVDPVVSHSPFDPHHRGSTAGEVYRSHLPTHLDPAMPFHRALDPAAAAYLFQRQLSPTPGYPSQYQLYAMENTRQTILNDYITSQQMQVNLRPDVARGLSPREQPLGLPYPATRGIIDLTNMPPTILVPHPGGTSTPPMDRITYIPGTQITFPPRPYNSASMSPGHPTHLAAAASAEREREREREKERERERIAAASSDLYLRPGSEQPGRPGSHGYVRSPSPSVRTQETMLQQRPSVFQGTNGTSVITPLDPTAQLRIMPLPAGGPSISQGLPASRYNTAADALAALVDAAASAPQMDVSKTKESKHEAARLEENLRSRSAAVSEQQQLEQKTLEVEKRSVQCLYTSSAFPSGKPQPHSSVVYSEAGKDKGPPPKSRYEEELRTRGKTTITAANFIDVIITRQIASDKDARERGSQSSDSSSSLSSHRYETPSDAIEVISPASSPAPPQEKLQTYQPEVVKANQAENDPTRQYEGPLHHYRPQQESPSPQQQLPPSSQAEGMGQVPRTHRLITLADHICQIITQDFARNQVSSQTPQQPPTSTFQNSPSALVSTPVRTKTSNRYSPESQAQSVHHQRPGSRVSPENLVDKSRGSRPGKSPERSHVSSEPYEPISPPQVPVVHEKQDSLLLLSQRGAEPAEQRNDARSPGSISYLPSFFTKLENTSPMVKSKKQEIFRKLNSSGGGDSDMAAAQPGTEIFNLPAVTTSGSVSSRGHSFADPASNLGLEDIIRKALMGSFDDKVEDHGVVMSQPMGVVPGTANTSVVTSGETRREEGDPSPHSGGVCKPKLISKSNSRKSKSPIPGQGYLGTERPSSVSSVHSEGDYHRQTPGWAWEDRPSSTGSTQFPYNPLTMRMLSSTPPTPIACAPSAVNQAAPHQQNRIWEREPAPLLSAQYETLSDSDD

Tests used:
[1] = target: One-Strep-FLAG-tagged GABARAP (gamma-aminobutyric acid receptor-associated protein) (UniProt O95166); test: pull-down; OSF-GABARAP co-expressed with a FLAG-tagged NCoR1 construct in HEK293T; lysate at 48 h in TNE buffer precipitated with Strep-Tactin Sepharose at 4 °C for 2 h; washed with TNE containing 1.0 M NaCl; immunoblot
[2] = target: One-Strep-FLAG-tagged GABARAP (gamma-aminobutyric acid receptor-associated protein) (UniProt O95166); test: pull-down; OSF-GABARAP immobilized on Strep-Tactin Sepharose mixed with lysates of cells expressing each NCoR1-deletion mutant, 4 °C for 2 h; washed with TNE containing 1.0 M NaCl; anti-FLAG immunoblot; only the target purified
[3] = target: One-Strep-FLAG-tagged GABARAP (gamma-aminobutyric acid receptor-associated protein) (UniProt O95166); test: pull-down; OSF-tagged LC3B or a GABARAP family protein expressed alone in HEK293T; lysate in TNE buffer (20 mM Tris-Cl pH 7.5, 0.5% NP-40, 150 mM NaCl, 1 mM EDTA, 1 mM DTT) incubated with Strep-Tactin Sepharose at 4 °C for 2 h; washed with TNE containing 1.0 M NaCl; immunoblot of the cells' own NCoR1, ULK1 and p62
[4] = target: One-Strep-FLAG-tagged gamma-aminobutyric acid receptor-associated protein-like 2 (GABARAPL2) (UniProt P60520); test: as above

| binding [1] | binding [4] | Substance | further results |
| --- | --- | --- | --- |
| binds | – | FLAG-tagged NCoR1 (wild type) (from UniProt O75376 1-2440) | – |
| – | – | FLAG-tagged NCoR1 N1 (amino acids 1–370) (from UniProt O75376 1-370) (domain or fragment) | binding [2]: binds |
| binds | – | FLAG-tagged NCoR1 N (aa 1–674) (from UniProt O75376 1-674) (domain or fragment) | – |
| binds | – | FLAG-tagged NCoR1 ΔC (aa 1–1149) (from UniProt O75376 1-1149) (domain or fragment) | – |
| – | binds | nuclear receptor co-repressor 1 (NCoR1), endogenous (from UniProt O75376 1-2440) | binding [3]: binds |
| – | binds | p62/SQSTM1, endogenous (from UniProt Q13501 1-440) | – |
